Measured values taken from patent US20050266562.
For some assays here: Results from cells or extracts need not show a direct contact. For some assays here: Construct, isoform or probe ends are uncertain for at least one entry. For some assays here: No signal at the amounts used counts as a negative. For some assays here: Protein sequences can lack the tags named with them.

By UniProt entry, the sequences of proteins in these tests, tags left out. Where a name states a change or a piece, a line headed by the entry shows the natural chain unless it says otherwise. Residues count along the entry.
UniProt P08047, 2-785: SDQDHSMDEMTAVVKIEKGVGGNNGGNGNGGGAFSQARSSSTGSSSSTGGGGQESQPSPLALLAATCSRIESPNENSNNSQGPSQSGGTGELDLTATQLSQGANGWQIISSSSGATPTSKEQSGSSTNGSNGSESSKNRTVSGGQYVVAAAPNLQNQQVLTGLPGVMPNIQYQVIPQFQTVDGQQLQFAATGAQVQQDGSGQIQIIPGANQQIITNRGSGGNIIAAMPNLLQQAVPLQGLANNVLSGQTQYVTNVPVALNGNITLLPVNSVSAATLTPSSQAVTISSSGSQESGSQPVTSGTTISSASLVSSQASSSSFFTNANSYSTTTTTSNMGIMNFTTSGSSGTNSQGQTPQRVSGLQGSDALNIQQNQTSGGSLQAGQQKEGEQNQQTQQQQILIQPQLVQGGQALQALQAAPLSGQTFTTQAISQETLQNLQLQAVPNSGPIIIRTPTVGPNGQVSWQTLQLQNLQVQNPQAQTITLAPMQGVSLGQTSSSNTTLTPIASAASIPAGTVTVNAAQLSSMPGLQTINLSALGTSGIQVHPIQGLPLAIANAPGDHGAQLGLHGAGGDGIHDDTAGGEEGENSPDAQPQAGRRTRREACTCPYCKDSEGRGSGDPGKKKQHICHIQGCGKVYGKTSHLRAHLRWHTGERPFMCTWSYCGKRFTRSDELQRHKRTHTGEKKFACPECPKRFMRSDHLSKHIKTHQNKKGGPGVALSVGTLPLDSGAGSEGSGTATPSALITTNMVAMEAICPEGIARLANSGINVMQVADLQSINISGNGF
UniProt Q02447: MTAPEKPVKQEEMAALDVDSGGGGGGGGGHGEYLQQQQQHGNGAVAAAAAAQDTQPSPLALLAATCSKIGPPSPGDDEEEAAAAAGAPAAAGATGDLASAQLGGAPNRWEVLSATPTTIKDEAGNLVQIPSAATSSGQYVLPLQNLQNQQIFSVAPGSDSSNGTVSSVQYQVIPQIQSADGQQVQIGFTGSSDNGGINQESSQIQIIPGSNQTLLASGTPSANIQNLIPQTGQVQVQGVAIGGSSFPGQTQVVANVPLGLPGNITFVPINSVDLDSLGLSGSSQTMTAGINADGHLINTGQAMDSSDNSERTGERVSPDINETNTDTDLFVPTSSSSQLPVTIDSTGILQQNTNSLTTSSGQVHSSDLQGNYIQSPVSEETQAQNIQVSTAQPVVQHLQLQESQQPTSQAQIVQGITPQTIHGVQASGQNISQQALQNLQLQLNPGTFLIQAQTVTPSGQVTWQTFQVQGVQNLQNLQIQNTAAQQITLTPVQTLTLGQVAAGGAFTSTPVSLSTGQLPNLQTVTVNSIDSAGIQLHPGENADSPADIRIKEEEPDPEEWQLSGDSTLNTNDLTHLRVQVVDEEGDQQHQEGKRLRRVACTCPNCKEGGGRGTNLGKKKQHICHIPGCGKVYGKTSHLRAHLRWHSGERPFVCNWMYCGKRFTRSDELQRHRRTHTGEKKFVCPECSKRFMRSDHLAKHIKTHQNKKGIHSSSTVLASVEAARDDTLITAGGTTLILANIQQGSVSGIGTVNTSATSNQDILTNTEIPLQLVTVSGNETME

Experiments:
Sp1 [1] = molecular target: Sp1 (UniProt P08047); test: footprint; conditions: DNase I; purified Sp1 protects -63 to -40; 6.25 mM MgCl2, 50 mM KCl, pH 8.0, room temp; purified recombinant protein; protein details: purified Sp1 protein, Promega; label: 32P
Sp1 [2] = molecular target: Sp1 (UniProt P08047); test: EMSA; conditions: THP1 nuclear extract complex supershifted with anti-Sp1 antibody, protein in an extract, protein details: endogenous
Sp1 [3] = molecular target: Sp1 (UniProt P08047); test: activity in cells; conditions: results similar to -591/+74; protein in cells
Sp2 = molecular target: T1, Sp2 (UniProt Q02086); test: activity in cells; conditions: results similar to -591/+74; protein in cells
T1 sequence (looked up, limits assumed): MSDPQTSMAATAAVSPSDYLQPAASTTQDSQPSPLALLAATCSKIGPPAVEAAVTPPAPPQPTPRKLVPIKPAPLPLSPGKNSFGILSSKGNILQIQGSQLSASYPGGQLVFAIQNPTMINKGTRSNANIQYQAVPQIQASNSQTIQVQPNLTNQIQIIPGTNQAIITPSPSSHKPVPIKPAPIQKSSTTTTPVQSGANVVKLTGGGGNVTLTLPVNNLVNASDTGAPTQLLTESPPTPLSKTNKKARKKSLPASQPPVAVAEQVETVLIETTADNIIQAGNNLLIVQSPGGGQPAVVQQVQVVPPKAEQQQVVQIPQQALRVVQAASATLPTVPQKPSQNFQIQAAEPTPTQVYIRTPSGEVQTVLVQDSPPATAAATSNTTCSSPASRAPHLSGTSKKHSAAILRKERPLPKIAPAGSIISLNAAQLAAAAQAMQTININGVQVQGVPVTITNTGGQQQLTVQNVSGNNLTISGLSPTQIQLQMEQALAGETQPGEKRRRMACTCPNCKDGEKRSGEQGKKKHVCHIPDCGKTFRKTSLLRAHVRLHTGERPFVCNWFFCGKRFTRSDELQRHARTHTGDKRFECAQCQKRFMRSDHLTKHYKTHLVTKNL

Sp3 = Sp3 (UniProt Q02447); test: activity in cells; conditions: results similar to -591/+74; protein in cells

## TTCTGGGAGAAGGAAGCCAGGTCCCTGCAGGTTGTGGAGGGGGACAGAATGAGGGTTTTTCCCCAGGATGTTGTTGGCCCCTGCCCCCACTTCTGTTCCATAATTAACCACGCCCCTCCTACCCACTGTGCCCCTCTTCCTGCTGTGTGGAGGCCCTGAATCATTATTTTAACTACCCCCTGGGAGGGTGAGCACCTTCTGTGCTCTGTCCCCAACCTTCCACTTCCCCTCAACGCGCTGCTCAGGG (double strand) [CD11d promoter -173/+74]
Sp1 [1]
  binding result: binds

## CGCCCCTCCTACCCACTGTGCCCC (double strand) [CD11d -63/-40 probe]
Sp1 [2]
  binding result: binds

## GTCCATTCTCCTCTGGAGGGGCTCTGCTTTTTGAAACCACACCCTGGCCTAGCTCCCCTTCTCCCTGCCTCTCTGCAGGCTCACATCCACATGCCAAGACCTCTGCAGCCATTCTGCTTCCTGTCCTTCCACTCCTGTGGGACCTCAGAGAGCTACGGGGCTCCCTGGGTACCAACTGGCTCCTGAGGCCTGGGGGAGGGTGGTCTTCTGGGAGAAGGAAGCCAGGTCCCTGCAGGTTGTGGAGGGGGACAGAATGAGGGTTTTTCCCCAGGATGTTGTTGGCCCCTGCCCCCACTTCTGTTCCATAATTAACCACGCCCCTCCTACCCACTGTGCCCCTCTTCCTGCTGTGTGGAGGCCCTGAATCATTATTTTAACTACCCCCTGGGAGGGTGAGCACCTTCTGTGCTCTGTCCCCAACCTTCCACTTCCCCTCAACGCGCTGCTCAGGG (double strand) [CD11d promoter -378/+74 (luc reporter; printed -378/+75)]
Sp1 [3]
  activity on this sequence: active
Sp2
  activity on this sequence: not active
Sp3
  activity on this sequence: not active
